PubChem BioAssay AID686943, Drosophila RNAi Screening Center, 2013

Purpose: 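Search across the genome for regulators of signalling from receptor tyrosine kinase to ERK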 (primary screen)
Cells: Drosophila S2R+ haemocyte-like cells expressing YFP-tagged ERK (Rolled)
Knock-down reagent: long dsRNA against Drosophila genes
Conditions: insulin stimulation versus unstimulated cells; dose and duration not given
Read-out: 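Per-plate z-scores of phospho-ERK immunostaining normalised to YFP-tagged ERK, measured with and without insulin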
Direction: replicate 1, z-score of dpERK with insulin: higher = more active ERK per ERK-YFP after insulin
In all, the deposit lists about 23,000 reagents; shown is a random part of those that have a named target and a result. 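Extra replicates exist only for a retested subset of genes; insulin dose and duration not given; both raised and lowered dpERK matter.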 The numbers tell different reagents against one gene apart. Not all columns of the deposit are shown. Not stated in the record: the amount of reagent, the time to read-out.

CG12012 — replicate 1, z-score of dpERK with insulin = 0.22
fuss #1 — replicate 1, z-score of dpERK with insulin = -0.01
fuss #2 — replicate 1, z-score of dpERK with insulin = -1.1
Tsp68C — replicate 1, z-score of dpERK with insulin = -0.77
Shmt — replicate 1, z-score of dpERK with insulin = 0.4
CG12010 — replicate 1, z-score of dpERK with insulin = 0.95
Rsf1 #1 — replicate 1, z-score of dpERK with insulin = -0.14
Rsf1 #2 — replicate 1, z-score of dpERK with insulin = 0.03
Elal — replicate 1, z-score of dpERK with insulin = -0.33
CG43183 — replicate 1, z-score of dpERK with insulin = 0.49

Next part (2 carried over from the part before).
Elal — replicate 1, z-score of dpERK with insulin = -0.33
CG43183 — replicate 1, z-score of dpERK with insulin = 0.49
CG15784 — replicate 1, z-score of dpERK with insulin = -0.24
Naa20A — replicate 1, z-score of dpERK with insulin = -0.27
Spn100A — replicate 1, z-score of dpERK with insulin = -0.2
tamo — replicate 1, z-score of dpERK with insulin = -0.34
mbm — replicate 1, z-score of dpERK with insulin = -0.28
CG15739 — replicate 1, z-score of dpERK with insulin = -0.09
CG12691 — replicate 1, z-score of dpERK with insulin = 0.38
CG12589 — replicate 1, z-score of dpERK with insulin = -1.05
CG1309 — replicate 1, z-score of dpERK with insulin = -0.14
CG10565 — replicate 1, z-score of dpERK with insulin = -2.76
CG15578 — replicate 1, z-score of dpERK with insulin = -0.79
